Experimental data taken from patent US9982152B2, “Active energy ray curable composition, cured product, composition storage container, two-dimensional or three-dimensional image forming apparatus, and two-dimensional or three-dimensional image forming method” (Ricoh Company, Ltd., priority 2016, dated 2018).
Some of these results come from one statement about several compounds together.

Assay: LLNA (Local Lymph Node Assay), SI (Stimulus Index)
Format: in vivo
Settings: methacrylate monomers stated in text to have SI equal to 3 or less
Excerpt: In the present disclosure, compounds having skin sensitization potential refer to those determined to be positive in a skin sensitization test. Hereinafter, such compounds may also be referred to as “skin-sensitizing compounds” or “skin sensitizers”. The skin sensitization test is not limited to a specific test. As an example of the skin sensitization test, LLNA (Local Lymph Node Assay) is known that evaluates the degree of sensitization potential by SI (Stimulus Index). SI of 3 or more is determined to be positive.
Skin sensitization information described in Table 1 was obtained from SDSs available in Japan or other countries. SI (determined by LLNA) values described in Table 1 were measured according to a method described in JP-2012-140593-A.

Row | Substance | SI value
1 | Tricyclodecane dimethanol dimethacrylate [(A-4)] | ≤ 3
2 | γ-butyrolactone methacrylate | ≤ 3
